{"source": "PubChem BioAssay AID1259254 (NCATS, 2017)", "assay": "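Gene knock-downs that lead to re-replication, shown by excess G2 DNA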 (primary screen)", "system": "human HCT116 colorectal cancer cells", "reagent": "single siRNA against human genes", "timing": "3 days", "measurement": "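Nuclei stained with Hoechst and imaged; cell-cycle phase assigned by DNA content; G2 share scaled per plate, non-targeting siRNA 0%, GMNN siRNA 100%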", "reading the numbers": "G2 robust z-score and G2 cells, % of GMNN control: higher = more G2 cells, more excess DNA replication", "rule for the call": "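Active siRNAs have a G2 robust z of 5 or more median absolute deviations over the median, which in these data means about 38% or higher of GMNN control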", "note": "In all, the deposit lists about 59,000 reagents; this is a part drawn at random. About 1,550 of all reagents (2.6%) were called active. 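G2 share is only a proxy for re-replication; each gene was hit by three separate siRNAs, and active genes were retested.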 A number with no mark means an inactive call. The numbers tell different reagents against one gene apart. Further read-outs or replicates are left out here. The record does not give: the amount of reagent."}
{"gene knocked down": "GYPA", "siRNA no.": 1, "G2 robust z-score": -0.135, "G2 cells, % of GMNN control": 2.02}
{"gene knocked down": "GYPA", "siRNA no.": 2, "G2 robust z-score": 1.34, "G2 cells, % of GMNN control": 12.4}
{"gene knocked down": "GYPA", "siRNA no.": 3, "G2 robust z-score": -0.695, "G2 cells, % of GMNN control": -1.92}
{"gene knocked down": "PDXDC1", "siRNA no.": 1, "G2 robust z-score": 3.21, "G2 cells, % of GMNN control": 25.6}
{"gene knocked down": "PDXDC1", "siRNA no.": 2, "G2 robust z-score": 0.126, "G2 cells, % of GMNN control": 3.85}
{"gene knocked down": "PDXDC1", "siRNA no.": 3, "G2 robust z-score": 0.695, "G2 cells, % of GMNN control": 7.86}
{"gene knocked down": "H1-9P", "siRNA no.": 1, "G2 robust z-score": 2.22, "G2 cells, % of GMNN control": 18.6}
{"gene knocked down": "H1-9P", "siRNA no.": 2, "G2 robust z-score": -1.03, "G2 cells, % of GMNN control": -4.31}
{"gene knocked down": "H1-9P", "siRNA no.": 3, "G2 robust z-score": -0.323, "G2 cells, % of GMNN control": 0.693}
{"gene knocked down": "CDK4", "siRNA no.": 1, "G2 robust z-score": 0.0572, "G2 cells, % of GMNN control": 3.37}
{"gene knocked down": "CDK4", "siRNA no.": 2, "G2 robust z-score": -0.453, "G2 cells, % of GMNN control": -0.218}
{"gene knocked down": "CDK4", "siRNA no.": 3, "G2 robust z-score": -1.02, "G2 cells, % of GMNN control": -4.19}

Quoted from the listing (2 entries):
{"gene knocked down": "GYPA", "siRNA no.": 2, "G2 robust z-score": 1.34, "G2 cells, % of GMNN control": 12.4}
{"gene knocked down": "GYPA", "siRNA no.": 3, "G2 robust z-score": -0.695, "G2 cells, % of GMNN control": -1.92}
